# PubChem BioAssay AID1671195 – Yale University | 2021
# Screen: 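Genes whose knockdown alters LDL uptake in liver cancer cells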 (primary screen)
# Cells: human Huh7 hepatoma cells
# Knock-down reagent: siRNA pool against human genes, 18 nM
# Duration: about 2 to 2.5 days of knockdown, then 8 h LDL uptake
# Challenge: DiI-labelled LDL at 30 µg/ml for 8 h, in lipoprotein-deficient serum medium
# Measured: 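Per-cell DiI-LDL intensity by automated imaging; well means scaled to the plate median and given as a robust z-score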
# Scale: robust z-score: higher = more LDL uptake after knockdown
# Hit rule: 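Active when two or more replicates show a robust z-score above 2 or below -2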
# Shown is a random part of about 22,000 reagents tested. Over the whole deposit, about 1,510 (6.9%) were called active. 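Active includes knockdowns raising or lowering LDL uptake; positive z-scores mean more uptake, negative mean less.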
gene,"robust z-score, replicate 1","robust z-score, replicate 2","robust z-score, replicate 3",Outcome
OR52R1 (GeneID 119695),-0.017,-0.000754,-0.244,inactive
MGST1 (GeneID 4257),0.0353,0.0734,0.772,inactive
CAMKK2 (GeneID 10645),-2.02,-1.78,-1.79,inactive
LOC441076 (retired record) (GeneID 441076),-0.312,-0.22,-0.554,inactive
LOC440949 (retired record) (GeneID 440949),-1.22,-1.03,-1.35,inactive
ATP11C (GeneID 286410),0.0031,0.348,-0.434,inactive
OR1N1 (GeneID 138883),-1.33,-1.7,-1.9,inactive
TAF2 (GeneID 6873),1.61,-0.295,0.988,inactive
ZNF626 (GeneID 199777),1.37,1.87,1.29,inactive
TES (GeneID 26136),-1.06,-1.07,0.0217,inactive
ELANE (GeneID 1991),1.13,1.96,1.42,inactive
CD38 (GeneID 952),1.63,0.207,1.2,inactive
NGDN (GeneID 25983),-0.485,-0.817,-1.22,inactive
NACC2 (GeneID 138151),0.229,-0.646,-0.0743,inactive
TSHZ2 (GeneID 128553),-1.6,-1.71,-1.48,inactive
KRT18P41 (GeneID 345430),1.21,0.465,1.27,inactive
TMC8 (GeneID 147138),-0.342,0.33,0.434,inactive
SHH (GeneID 6469),2.49,2.17,3.48,active
RPL13A (GeneID 23521),0.447,-2.29,0.397,inactive
TRPV1 (GeneID 7442),0.494,0.143,0.914,inactive
SLAMF6 (GeneID 114836),1.49,2.56,0.412,inactive
RPL23AP43 (GeneID 389101),-0.405,-0.65,-0.472,inactive
SPTBN2 (GeneID 6712),-1.63,-2.33,-0.832,inactive
HAPLN1 (GeneID 1404),0.783,0.351,0.409,inactive
MAL2 (GeneID 114569),-0.247,-1.16,-0.858,inactive
UBTF (GeneID 7343),0.498,1.18,-0.177,inactive
SLC39A7 (GeneID 7922),0.284,0.253,-0.028,inactive
KLF17 (GeneID 128209),0.773,0.493,0.512,inactive
